No constants are given. Whether binding was seen depends on the method and setting. In cells and extracts the contact can be indirect. For some of these results: Binding calls can cover weak binding; strength is not graded here. For some of these results: Sequences can lack the tags named with a protein.
B1: HA-tagged ERG (pCEFL-ha-ERG) (protein, UniProt P11308 1-479)
chain: MASTIKEALSVVSEDQSLFECAYGTPHLAKTEMTASSSSDYGQTSKMSPRVPQQDWLSQPPARVTIKMECNPSQVNGSRNSPDECSVAKGGKMVGSPDTVGMNYGSYMEEKHMPPPNMTTNERRVIVPADPTLWSTDHVRQWLEWAVKEYGLPDVNILLFQNIDGKELCKMTKDDFQRLTPSYNADILLSHLHYLRETPLPHLTSDDVDKALQNSPRLMHARNTGGAAFIFPNTSVYPEATQRITTRPDLPYEPPRRSAWTGHGHPTPQSKAAQPSPSTVPKTEDQRPQLDPYQILGPTSSRLANPGSGQIQLWQFLLELLSDSSNSSCITWEGTNGEFKMTDPDEVARRWGERKSKPNMNYDKLSRALRYYYDKNIMTKVHGKRYAYKFDFHGIAQALQPHPPESSLYKYPSDLPYMGSYHAHPQKMNFVAPHPPALPVTSSSFFAAPNPYWNSPTGGIYPNTRLPTSHMPSHLGTYY

Chains of the proteins cited; added tags and fusions are not shown.
UniProt P10275: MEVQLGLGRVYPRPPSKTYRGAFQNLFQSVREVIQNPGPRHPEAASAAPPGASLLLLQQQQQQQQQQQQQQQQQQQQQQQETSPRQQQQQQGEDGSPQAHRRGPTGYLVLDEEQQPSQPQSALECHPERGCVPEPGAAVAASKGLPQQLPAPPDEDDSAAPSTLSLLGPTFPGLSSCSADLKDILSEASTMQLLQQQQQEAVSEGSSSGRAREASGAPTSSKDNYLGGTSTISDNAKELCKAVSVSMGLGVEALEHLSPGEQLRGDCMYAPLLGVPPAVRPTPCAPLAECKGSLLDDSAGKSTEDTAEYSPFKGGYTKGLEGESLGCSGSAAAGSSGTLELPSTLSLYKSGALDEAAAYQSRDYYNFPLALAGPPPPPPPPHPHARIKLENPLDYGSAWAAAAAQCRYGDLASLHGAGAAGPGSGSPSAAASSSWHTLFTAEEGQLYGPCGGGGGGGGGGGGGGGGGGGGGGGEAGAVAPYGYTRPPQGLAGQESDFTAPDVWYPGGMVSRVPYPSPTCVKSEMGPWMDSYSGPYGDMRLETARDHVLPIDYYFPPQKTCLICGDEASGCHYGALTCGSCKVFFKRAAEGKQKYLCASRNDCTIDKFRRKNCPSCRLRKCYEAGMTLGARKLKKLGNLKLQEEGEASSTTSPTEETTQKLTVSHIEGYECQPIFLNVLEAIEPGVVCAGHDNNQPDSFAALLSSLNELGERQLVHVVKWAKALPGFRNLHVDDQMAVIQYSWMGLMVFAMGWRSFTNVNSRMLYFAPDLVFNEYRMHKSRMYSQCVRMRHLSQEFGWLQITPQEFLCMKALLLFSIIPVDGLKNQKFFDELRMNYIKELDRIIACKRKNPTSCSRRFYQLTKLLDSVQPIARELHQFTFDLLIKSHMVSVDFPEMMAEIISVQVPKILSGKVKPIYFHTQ

Experiments:
[1] = target: endogenous ERG in VCaP cells (TMPRSS2:ERG truncated variant, Δ32) (human (endogenous in VCaP)) (UniProt P11308); assay: co-IP; VCaP cells, endogenous proteins; ERG and EZH2 specific antibodies and control IgG; RIPA lysates
Myc-EZH2-ΔSET (human) = assay: co-IP; PC3 cells transiently transfected with truncated Myc-tagged EZH2 constructs along with the Ha-ERG plasmid
Myc-EZH2-ΔCXC (human) = assay: as above
Myc-EZH2-1-340 (human) = assay: as above

Molecule | binding [1] | binding (Myc-EZH2-ΔSET (human)) | binding (Myc-EZH2-ΔCXC (human)) | binding (Myc-EZH2-1-340 (human))
AR, endogenous in VCaP cells (from UniProt P10275 1-920) | binds | – | – | –
B1 | – | binds | binds | no binding
